Results are given in words; binding and its absence hold for the method and conditions named. In cells and extracts the contact can be indirect. Some binding calls cover weakened binding; strength is not graded here. Sequences can lack the tags named with a protein.
What was measured:
[1] = biological target: T1, native RGS7-Gβ5 complex from mouse brain extract (mouse) (UniProt P62881+O54829); experiment: GST pull-down from tissue extract
T1 sequence (looked up) 1: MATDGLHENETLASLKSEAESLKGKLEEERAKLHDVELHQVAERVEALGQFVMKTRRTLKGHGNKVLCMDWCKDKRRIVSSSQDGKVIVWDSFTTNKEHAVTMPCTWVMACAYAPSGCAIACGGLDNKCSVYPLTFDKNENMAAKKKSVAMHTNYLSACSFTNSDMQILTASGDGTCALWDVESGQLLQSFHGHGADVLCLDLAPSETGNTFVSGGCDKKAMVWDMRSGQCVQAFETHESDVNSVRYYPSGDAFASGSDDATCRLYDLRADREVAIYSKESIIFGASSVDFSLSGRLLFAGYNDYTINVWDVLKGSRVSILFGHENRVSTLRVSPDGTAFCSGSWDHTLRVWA
T1 sequence (looked up) 2: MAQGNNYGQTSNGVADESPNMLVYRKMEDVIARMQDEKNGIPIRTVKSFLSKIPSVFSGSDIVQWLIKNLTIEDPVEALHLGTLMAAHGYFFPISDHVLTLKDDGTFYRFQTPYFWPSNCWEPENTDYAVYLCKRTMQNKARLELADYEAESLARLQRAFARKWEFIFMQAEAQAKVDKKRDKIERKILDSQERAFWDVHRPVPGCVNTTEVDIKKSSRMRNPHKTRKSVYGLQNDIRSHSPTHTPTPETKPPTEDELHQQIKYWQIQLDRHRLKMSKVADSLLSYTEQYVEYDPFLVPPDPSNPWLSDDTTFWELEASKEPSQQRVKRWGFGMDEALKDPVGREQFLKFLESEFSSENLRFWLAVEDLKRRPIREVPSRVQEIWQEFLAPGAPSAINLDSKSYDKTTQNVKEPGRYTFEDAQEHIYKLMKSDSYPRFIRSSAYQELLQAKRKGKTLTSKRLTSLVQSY

Protein sequences, listed by entry. Tags and fused reporters are not part of them. Residues count along the entry.
UniProt P62874, residues 2-340: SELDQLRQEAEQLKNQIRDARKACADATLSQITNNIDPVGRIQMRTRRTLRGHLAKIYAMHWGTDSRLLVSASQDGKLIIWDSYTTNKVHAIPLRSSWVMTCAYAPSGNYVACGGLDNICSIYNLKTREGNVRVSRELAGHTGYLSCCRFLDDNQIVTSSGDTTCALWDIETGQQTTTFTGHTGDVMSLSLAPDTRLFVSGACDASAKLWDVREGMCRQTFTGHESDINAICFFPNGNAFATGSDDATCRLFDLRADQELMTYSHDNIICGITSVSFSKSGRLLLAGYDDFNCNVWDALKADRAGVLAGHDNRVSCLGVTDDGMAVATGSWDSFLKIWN

[2] = biological target: native Gβ1 from mouse brain extract (mouse) (UniProt P62874); experiment: GST pull-down from mouse brain extract, western blot
[3] = biological target: T1, native RGS7-Gβ5 complex from mouse brain extract (mouse); experiment: as above
[4] = biological target: T1, native RGS7-Gβ5 complex from mouse brain extract (mouse); experiment: GST pull-down from mouse brain extract, western blot with anti-RGS7 and anti-Gβ5
[5] = biological target: native Gβ1 from mouse brain extract (mouse) (UniProt P62874); experiment: GST pull-down on glutathione beads from mouse brain extract, western blot with anti-Gβ1
[6] = biological target: T1, native RGS7-Gβ5 complex from mouse brain extract (mouse); experiment: GST pull-down on glutathione beads from mouse brain extract, western blot with anti-RGS7 and anti-Gβ5; D: densitometry of eight experiments [1B, 1C, 1D]

Measured: binding

B1: GST-R7DEP (GST fusion of amino acids 34-124 of bovine RGS7) (protein, UniProt O46470 34-124, looked up, not shown: a dimerising Fc or GST)
chain: MQDEKNGIPIRTVKSFLSKIPSVFSGSDIVQWLIKNLTIEDPVEALHLGTLMAAHGYFFPISDHVLTLKDDGTFYRFQTPYFWPSNCWEPE
binds: all assays above

From patent publication US20100183584A1, “CONFORMATION AND ACTIVITY OF GBETA5 COMPLEXES” (University Of Miami, priority 2007, published 2010)
